# Source: the supplement of paper PMC3334620
# The full ranking holds about 33,000 sequences; the median of “E-score (-0.5 to 0.5)” is about -0.0014, and the highest 2% start at about 0.25. The list shows a part of the results.
# Target: T1, Cad1 (UniProt P24813)
# T1 sequence: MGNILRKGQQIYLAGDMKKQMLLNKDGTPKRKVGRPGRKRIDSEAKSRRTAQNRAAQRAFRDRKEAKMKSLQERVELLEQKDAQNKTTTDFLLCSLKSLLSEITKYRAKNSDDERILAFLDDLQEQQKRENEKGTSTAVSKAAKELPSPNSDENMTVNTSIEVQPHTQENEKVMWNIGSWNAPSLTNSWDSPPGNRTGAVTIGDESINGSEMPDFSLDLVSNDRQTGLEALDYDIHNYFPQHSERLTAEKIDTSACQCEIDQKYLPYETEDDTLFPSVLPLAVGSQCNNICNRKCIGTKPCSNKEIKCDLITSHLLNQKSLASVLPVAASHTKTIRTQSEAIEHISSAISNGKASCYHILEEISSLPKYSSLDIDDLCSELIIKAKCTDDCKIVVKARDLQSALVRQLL
# Test: PBM E-score (8-mer binding enrichment) (E-score (-0.5 to 0.5)); higher = stronger / more preferred TF binding
# Settings: protein concentration: 100 nM; construct: GST-full length
# Method in brief: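 Yeast transcription factors, full-length or as DNA-binding domains, were expressed with a GST tag using PURExpress in vitro transcription/translation. At about 100-200 nM they were applied to universal all-10-mer Agilent arrays, double-stranded by primer extension on fresh or once-stripped slides. Fluorescent anti-GST detected bound protein, and masliner normalised the scans. E-scores for ungapped eight-base words, pooled with reverse complements, came from the Universal PBM Analysis Suite.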
row,Sequence,PBM E-score
1,TCCTGCGA,0.112
2,GGCGCGCA,0.195
3,CTTGTAAC,0.0992
4,AGGTTACG,-0.0843
5,CTCGAGTA,0.2
6,AGAGGTCG,-0.0586
7,AGCTTTTC,-0.0601
8,GATCAGCC,-0.0165
9,TGCAATAA,0.136
10,CCGTTAAG,0.0396
11,CGGATTGA,0.118
12,AACGTGAC,-0.0166
13,CGGTAGAA,-0.304
14,ATTGACGG,0.111
15,AGCGGATC,0.0864
16,AGTTTGGG,0.123
17,AATCAGTG,-0.0375
18,AATGATGC,0.0987
19,AGCAAAAC,0.0772
20,GAGGTACC,-0.257
21,AAGTGGTC,-0.0894
22,CTGCCATC,0.00399
23,AGAAGTAA,0.153
24,ATTCTGTA,-0.0178
25,CGACACCC,0.00473

row,Sequence,PBM E-score
1,ACCCGCTA,-0.0304
2,CGCATCTA,0.225
3,CATGTCCC,-0.119
4,AAATTATG,0.255
5,CATGAGAA,0.00981
6,CCTGGGTA,-0.191
7,CTTCCGTC,-0.133
8,AGCCCCAT,-0.128
9,CCATGGGA,-0.0604
10,CCGGGGCA,-0.127
11,CCATTCAC,-0.0396
12,AAAACCCT,-0.0196
13,ACTCGGCG,0.00224
14,CTTGCTAA,-0.13
15,CCATCTAG,-0.233
16,CGTTTACA,0.0127
17,GATACTGA,0.14
18,GCTGCTAC,-0.141
19,CCCATTAC,-0.133
20,GGGCCGAC,-0.0388
21,CCACCAAA,-0.0383
22,ACCGTATG,-0.105
23,AGTGAAGG,-0.0678
24,ACCAAGAT,0.0875
25,CAGGTAAA,0.143

row,Sequence,PBM E-score
1,GGTTGACA,-0.0649
2,ACATAACT,0.0912
3,CACACCGA,0.079
4,ACAGGGAT,-0.0781
5,ATCGAAGC,-0.142
6,CATGCGAG,-0.0416
7,GCTGAGCC,-0.119
8,AGAAAATG,0.166
9,AGCTTCAG,-0.0911
10,AAGAAAGG,0.0418
11,CAGGGACC,-0.36
12,CGTCGTTC,0.221
13,ACCAACCA,0.0516
14,CGGTGTGA,0.203
15,GAATGCGC,0.199
16,ATGACTAA,0.377
17,CCTGGGGA,-0.43
18,CAAGAGCG,-0.0357
19,ACCGATGC,-0.0627
20,GTAGACAC,-0.0178
21,AATGTGGA,0.0542
22,CATTCAGG,-0.0709
23,CATAGGGC,-0.163
24,GACGGGTA,-0.249
25,ACAGGCAA,0.0554

row,Sequence,PBM E-score
1,GTGAAGCA,-0.0409
2,GCCAAAGA,-0.173
3,AGAGCGGC,-0.0338
4,ATATGATC,0.0924
5,ATTGCCAA,0.0207
6,GGCATGCC,0.00621
7,CTCATGCA,0.0438
8,TTATTAAA,0.307
9,CATGCTGC,-0.00626
10,CTGATAGA,0.105
11,ATTTTCTC,0.0775
12,AGTAGCCA,-0.282
13,AAAGACCT,-0.12
14,AGATTCGA,-0.0634
15,GATTGATA,0.233
16,CTCAAGTC,-0.208
17,AACGGGGC,0.0501
18,CCCTTATA,-0.0522
19,AAGGAAAG,-0.149
20,CGTAGTCC,-0.064
21,AAGGTGCA,-0.116
22,CTTGTGAA,-0.0875
23,AACGTCAA,0.0199
24,AATATGGT,0.171
25,ATAGGACC,-0.125

# An excerpt of these results, tab-delimited:
row	Sequence	PBM E-score
1	GTGAAGCA	-0.0409
10	CTGATAGA	0.105
11	ATTTTCTC	0.0775
15	GATTGATA	0.233
20	CGTAGTCC	-0.064
21	AAGGTGCA	-0.116

# Additional records.

row,Sequence,PBM E-score
1,AAACGCCA,0.114
2,ATCGGGCA,-0.0837
3,TCAAACCA,0.188
4,ACCAGCAG,-0.16
5,CACTCTAC,0.189
6,ACATTCAT,0.0781
7,AGCCAGGA,-0.0204
8,CGGTGGTC,0.00946
9,GCGGAGCC,-0.101
10,GTATTAGA,0.26
11,GGCTCACC,-0.24
12,TGCAACAA,0.137
13,CATGCTAG,0.0845
14,ATACCACC,0.0548
15,CATATGTC,-0.0107
16,ATAAGATG,0.00928
17,ACTTGGGA,-0.197
18,AATTCAAG,0.0949
19,GCTCAAAA,0.0411
20,CTCTATCC,-0.0689
21,CTTGCTCC,-0.0856
22,GTCGACTA,0.234
23,GGTTCTAC,-0.157
24,ATCGATGA,0.13
25,CCTCTCCC,-0.264

# Look-ups from the results shown:
# CTCATGCA – PBM E-score: 0.0438
# ACATAACT – PBM E-score: 0.0912

# Laid out differently: entries from further up.
row	Sequence	PBM E-score
8	CGGTGGTC	0.00946
18	AATTCAAG	0.0949

# Continued:

row,Sequence,PBM E-score
1,AGAGTTCG,0.213
2,GTGACGTA,0.0413
3,AGTTCCAG,-0.0736
4,CGTAAGGA,-0.00028
5,CAGGCCTA,0.0617
6,CCTCAGAA,-0.126
7,CACTGATA,0.0185
8,ACCTACGA,-0.162
9,CCAGTCGC,-0.0749
10,AGTGCCGC,-0.0396
11,CGCCCCGA,-0.122
12,AGGTTAAG,-0.136
13,CCCCAACA,-0.213
14,GCACAAAC,-0.0491
15,CCTGAAGG,-0.252
16,GATGGGAA,-0.27
17,CATCGATC,0.0949
18,CAGACGCA,0.0311
19,CGGTAACG,-0.0233
20,GGCGAGCC,-0.0683
21,CGGCCTAA,-0.0467
22,AGATGAAA,0.02
23,CTAGCGAA,-0.235
24,GATGGGCA,0.0201
25,GGTTCCTA,-0.00232

row,Sequence,PBM E-score
1,ACAAGAGG,-0.182
2,CAAGTCAA,0.0242
3,ACAGTCCA,0.129
4,TAATGCTA,0.234
5,GTGGCTCA,-0.0505
6,CAACCATG,0.109
7,AGCTTGAG,-0.123
8,CCGCGGCA,0.168
9,CGCTTCCC,-0.206
10,TAGTAGCA,0.0478
11,AAAATCTG,0.159
12,AAAGCACC,-0.0654
13,ATCTGTGA,0.103
14,CGTATGAG,-0.0984
15,ATCTCCAG,0.155
16,GCCTCGGA,-0.0438
17,ACACACAT,0.0505
18,GACTCTCA,-0.0683
19,CAGTTGAG,-0.0801
20,GGTTCTTA,-0.0816
21,AGATCACT,0.004
22,GCTGCGAA,0.0915
